Reference: PubChem BioAssay AID2073 (Sanford-Burnham Center for Chemical Genomics, 2009)
About 570 (0.2%) of roughly 290,000 compounds were called active. This list was built around the results that the source calls inconclusive (neither active nor inactive); the mix of calls is not that of the screen. Cut-off read from the data, not from the text of the source: active = inhibition mostly above about 51% (no sharp cut-off); inconclusive = no clear call, values can overlap the other calls; inactive = mostly below about 53%.

By UniProt entry, the sequences of proteins in these tests, tags left out.
UniProt Q00975, whole entry, looked up: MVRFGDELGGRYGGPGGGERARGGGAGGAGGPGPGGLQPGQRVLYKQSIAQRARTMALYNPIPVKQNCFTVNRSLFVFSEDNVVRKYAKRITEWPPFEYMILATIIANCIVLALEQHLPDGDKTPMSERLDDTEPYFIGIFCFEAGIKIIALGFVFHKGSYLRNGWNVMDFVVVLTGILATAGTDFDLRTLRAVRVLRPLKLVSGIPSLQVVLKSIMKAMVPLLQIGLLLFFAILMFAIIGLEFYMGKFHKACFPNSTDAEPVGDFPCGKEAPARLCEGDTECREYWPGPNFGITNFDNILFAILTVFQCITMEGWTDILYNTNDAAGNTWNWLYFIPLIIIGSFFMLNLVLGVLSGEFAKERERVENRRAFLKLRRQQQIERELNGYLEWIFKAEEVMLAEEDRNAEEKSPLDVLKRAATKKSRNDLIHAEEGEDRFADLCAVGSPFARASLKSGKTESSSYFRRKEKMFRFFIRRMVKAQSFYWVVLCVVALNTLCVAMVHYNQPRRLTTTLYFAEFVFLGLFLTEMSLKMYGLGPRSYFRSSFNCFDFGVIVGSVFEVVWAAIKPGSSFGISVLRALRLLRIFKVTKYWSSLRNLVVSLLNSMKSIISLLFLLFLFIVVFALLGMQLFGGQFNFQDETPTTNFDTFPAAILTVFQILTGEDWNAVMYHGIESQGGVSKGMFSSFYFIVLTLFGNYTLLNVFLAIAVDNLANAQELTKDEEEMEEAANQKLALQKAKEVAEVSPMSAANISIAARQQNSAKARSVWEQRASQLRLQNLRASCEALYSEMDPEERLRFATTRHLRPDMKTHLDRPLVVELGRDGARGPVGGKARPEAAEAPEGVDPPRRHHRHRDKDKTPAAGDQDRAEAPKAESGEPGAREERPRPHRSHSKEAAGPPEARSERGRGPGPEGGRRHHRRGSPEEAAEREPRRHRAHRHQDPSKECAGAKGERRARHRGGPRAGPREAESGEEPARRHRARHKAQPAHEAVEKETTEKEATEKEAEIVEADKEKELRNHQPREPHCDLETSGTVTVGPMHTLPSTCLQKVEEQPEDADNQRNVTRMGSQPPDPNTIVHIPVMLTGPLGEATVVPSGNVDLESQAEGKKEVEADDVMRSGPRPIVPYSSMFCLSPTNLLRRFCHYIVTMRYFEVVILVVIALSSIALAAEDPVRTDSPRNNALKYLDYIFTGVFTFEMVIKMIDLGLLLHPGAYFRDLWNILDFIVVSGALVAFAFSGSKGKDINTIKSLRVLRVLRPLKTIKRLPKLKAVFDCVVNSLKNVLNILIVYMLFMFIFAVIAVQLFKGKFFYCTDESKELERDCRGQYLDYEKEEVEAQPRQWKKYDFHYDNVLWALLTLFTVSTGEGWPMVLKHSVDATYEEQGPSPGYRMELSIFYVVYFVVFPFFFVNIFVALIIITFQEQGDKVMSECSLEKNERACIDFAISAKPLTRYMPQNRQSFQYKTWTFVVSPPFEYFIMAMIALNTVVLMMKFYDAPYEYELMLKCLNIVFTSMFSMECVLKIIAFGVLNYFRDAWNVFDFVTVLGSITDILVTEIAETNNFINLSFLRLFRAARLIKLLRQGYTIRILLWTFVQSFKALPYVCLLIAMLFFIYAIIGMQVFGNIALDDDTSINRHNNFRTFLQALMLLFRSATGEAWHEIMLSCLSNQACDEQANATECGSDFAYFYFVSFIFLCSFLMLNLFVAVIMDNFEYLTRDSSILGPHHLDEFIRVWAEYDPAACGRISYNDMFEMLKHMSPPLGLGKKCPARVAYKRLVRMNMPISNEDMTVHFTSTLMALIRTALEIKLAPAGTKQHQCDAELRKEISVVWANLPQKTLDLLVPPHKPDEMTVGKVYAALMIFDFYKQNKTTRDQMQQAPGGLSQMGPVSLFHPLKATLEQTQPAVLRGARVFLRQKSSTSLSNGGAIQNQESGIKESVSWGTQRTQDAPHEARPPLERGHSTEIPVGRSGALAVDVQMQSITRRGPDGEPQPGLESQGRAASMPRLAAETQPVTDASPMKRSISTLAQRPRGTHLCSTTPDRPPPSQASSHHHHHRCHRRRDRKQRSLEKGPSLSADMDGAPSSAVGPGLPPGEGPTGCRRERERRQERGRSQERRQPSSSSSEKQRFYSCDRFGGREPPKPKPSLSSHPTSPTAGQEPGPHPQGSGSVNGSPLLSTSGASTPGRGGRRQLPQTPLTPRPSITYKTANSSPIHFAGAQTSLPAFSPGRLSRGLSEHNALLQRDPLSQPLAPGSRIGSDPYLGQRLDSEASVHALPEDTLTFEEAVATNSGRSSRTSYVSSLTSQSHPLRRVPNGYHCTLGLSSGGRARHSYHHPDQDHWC

The compounds below were run against Voltage-dependent N-type calcium channel subunit alpha-1B (Homo sapiens) (UniProt Q00975) (assay: disruptors of CaV2.2 binding to Mint1 – biochemical, HTRF (AID 2073)). Conditions: HTRF protein-protein interaction, Mint1-CaV2.2; at 20 µM; hits give high values.

inhibition, inactive:
CC(=O)N1CCC(C(=O)N2CCN(S(=O)(=O)c3cccs3)CC2)CC1 0.1%
NS(=O)(=O)c1ccc(NCc2c(F)cccc2Cl)cc1 -1.1%
CC(C)C(C(=O)O)N1C(=O)/C(=C/C=C/c2ccco2)SC1=S (stereo not given) 49.5%
O=C1/C(=C/c2ccco2)CCc2ccccc21 15.3%
Cc1ccc(N=Cc2nc(-c3ccc(C)cc3)oc2O)cc1 17.5%
O=C(O)C1Nc2c(C(F)(F)F)ccc(Cl)c2C2C=CCC12 (stereo not given) 7.3%
Cc1onc(-c2ccccc2)c1C(=O)OCC(=O)NCc1ccc(F)cc1 -0.7%

inhibition, inconclusive:
Cc1ccc(Nc2nc3ccccc3n3cnnc23)c(Cl)c1 90%
Cc1ccc(C(=O)N(CCCN(C)C)c2nc3ccc(Cl)cc3s2)cc1C 59.7%
O=C(CSc1ncnc2c1oc1ccccc12)Nc1ccccc1C(F)(F)F 62.5%
COc1ccc(-c2c(C#N)c(N)nc3sc(C(=O)c4ccccc4)c(N)c23)cc1 74.4%
Cc1cc(C(=O)COC(=O)C2=NNC(=O)CC2)c(C)n1-c1cccc(C(F)(F)F)c1 69.7%
COC(=O)Cc1c(C)c2ccc(OCC(C)=O)c(C)c2oc1=O 71.4%
COc1ccc(C(=O)OCC(=O)Nc2nc3c(F)c(F)c(F)cc3s2)cc1OC 58.6%
Cc1ccc(C2C(C#N)=C(N)OC3=C2C(=O)CC(C)(C)C3)s1 (stereo not given) 60.7%
COCCNC(=O)C(c1ccccc1F)N(C(=O)C(=O)NC1CCCC1)C1CCCCC1 (stereo not given) 60.8%
CSCC(=O)N1CCCC(CNC(=O)c2ccccc2Cl)C1 (stereo not given) 94.4%
CN(C)CCCN1C(=O)C(=O)/C(=C(/O)c2ccncc2)C1c1cccc(Br)c1 (stereo not given) 66%
Cc1cc(OCC(=O)N2CCN(c3ccc(F)cc3)CC2)c2c(C)cc(=O)oc2c1 69.4%
COc1cccc(-c2nc3ccccc3s2)c1O 59%
O=C(c1ccc(COc2ccccc2Cl)o1)N1CCOCC1 71.4%
COc1ccccc1NC(=O)CSc1nnc(COc2ccc(Cl)cc2)o1 53%
O=C(CSc1ccccc1)Nc1cccc(NC(=O)c2ccco2)c1 93%
CC1(C)[C@@H](O)CC[C@]2(C)C3C(O)C=C4[C@H]5C[C@@](C)(C(=O)O)CC[C@]5(C)CC[C@]4(C)[C@]3(C)CC[C@@H]12 (stereo not given in full) 51.3%

2 entries picked at random from the list so far, as already listed:
inhibition, inconclusive:
O=C(CSc1ccccc1)Nc1cccc(NC(=O)c2ccco2)c1 93%
CN(C)CCCN1C(=O)C(=O)/C(=C(/O)c2ccncc2)C1c1cccc(Br)c1 (stereo not given) 66%

Next part.

inhibition, active:
O=C1NC(=O)/C(=C\c2ccc(N3CCOCC3)o2)N1 71.7%
